Results are given in words; binding and its absence hold for the method and conditions named. Binding seen in cells or lysates may run through a third protein. These calls come from enrichment with a bait or labelling near it, and not all partners need be listed. For some assays here: No binding means not detected with the bait.
B1: Zinc finger protein 512B (protein, UniProt Q96KM6 1-892)
chain: MTDPFCVGGRRLPGSSKSGPGKDGSRKEVRLPMLHDPPKMGMPVVRGGQTVPGQAPLCFDPGSPASDKTEGKKKGRPKAENQALRDIPLSLMNDWKDEFKAHSRVKCPNSGCWLEFPSIYGLKYHYQRCQGGAISDRLAFPCPFCEAAFTSKTQLEKHRIWNHMDRPLPASKPGPISRPVTISRPVGVSKPIGVSKPVTIGKPVGVSKPIGISKPVSVGRPMPVTKAIPVTRPVPVTKPVTVSRPMPVTKAMPVTKPITVTKSVPVTKPVPVTKPITVTKLVTVTKPVPVTKPVTVSRPIVVSKPVTVSRPIAISRHTPPCKMVLLTRSENKAPRATGRNSGKKRAADSLDTCPIPPKQARPENGEYGPSSMGQSSAFQLSADTSSGSLSPGSRPSGGMEALKAAGPASPPEEDPERTKHRRKQKTPKKFTGEQPSISGTFGLKGLVKAEDKARVHRSKKQEGPGPEDARKKVPAAPITVSKEAPAPVAHPAPGGPEEQWQRAIHERGEAVCPTCNVVTRKTLVGLKKHMEVCQKLQDALKCQHCRKQFKSKAGLNYHTMAEHSAKPSDAEASEGGEQEERERLRKVLKQMGRLRCPQEGCGAAFSSLMGYQYHQRRCGKPPCEVDSPSFPCTHCGKTYRSKAGHDYHVRSEHTAPPPEEPTDKSPEAEDPLGVERTPSGRVRRTSAQVAVFHLQEIAEDELARDWTKRRMKDDLVPETARLNYTRPGLPTLNPQLLEAWKNEVKEKGHVNCPNDCCEAIYSSVSGLKAHLASCSKGAHLAGKYRCLLCPKEFSSESGVKYHILKTHAENWFRTSADPPPKHRSQDSLVPKKEKKKNLAGGKKRGRKPKERTPEEPVAKLPPRRDDWPPGCRDKGARGSTGRKVGVSKAPEK
B2: Zinc finger transcription factor Trps1 (protein, UniProt Q9UHF7 1-1281)
chain: MVRKKNPPLRNVASEGEGQILEPIGTESKVSGKNKEFSADQMSENTDQSDAAELNHKEEHSLHVQDPSSSSKKDLKSAVLSEKAGFNYESPSKGGNFPSFPHDEVTDRNMLAFSSPAAGGVCEPLKSPQRAEADDPQDMACTPSGDSLETKEDQKMSPKATEETGQAQSGQANCQGLSPVSVASKNPQVPSDGGVRLNKSKTDLLVNDNPDPAPLSPELQDFKCNICGYGYYGNDPTDLIKHFRKYHLGLHNRTRQDAELDSKILALHNMVQFSHSKDFQKVNRSVFSGVLQDINSSRPVLLNGTYDVQVTSGGTFIGIGRKTPDCQGNTKYFRCKFCNFTYMGNSSTELEQHFLQTHPNKIKASLPSSEVAKPSEKNSNKSIPALQSSDSGDLGKWQDKITVKAGDDTPVGYSVPIKPLDSSRQNGTEATSYYWCKFCSFSCESSSSLKLLEHYGKQHGAVQSGGLNPELNDKLSRGSVINQNDLAKSSEGETMTKTDKSSSGAKKKDFSSKGAEDNMVTSYNCQFCDFRYSKSHGPDVIVVGPLLRHYQQLHNIHKCTIKHCPFCPRGLCSPEKHLGEITYPFACRKSNCSHCALLLLHLSPGAAGSSRVKHQCHQCSFTTPDVDVLLFHYESVHESQASDVKQEANHLQGSDGQQSVKESKEHSCTKCDFITQVEEEISRHYRRAHSCYKCRQCSFTAADTQSLLEHFNTVHCQEQDITTANGEEDGHAISTIKEEPKIDFRVYNLLTPDSKMGEPVSESVVKREKLEEKDGLKEKVWTESSSDDLRNVTWRGADILRGSPSYTQASLGLLTPVSGTQEQTKTLRDSPNVEAAHLARPIYGLAVETKGFLQGAPAGGEKSGALPQQYPASGENKSKDESQSLLRRRRGSGVFCANCLTTKTSLWRKNANGGYVCNACGLYQKLHSTPRPLNIIKQNNGEQIIRRRTRKRLNPEALQAEQLNKQQRGSNEEQVNGSPLERRSEDHLTESHQREIPLPSLSKYEAQGSLTKSHSAQQPVLVSQTLDIHKRMQPLHIQIKSPQESTGDPGNSSSVSEGKGSSERGSPIEKYMRPAKHPNYSPPGSPIEKYQYPLFGLPFVHNDFQSEADWLRFWSKYKLSVPGNPHYLSHVPGLPNPCQNYVPYPTFNLPPHFSAVGSDNDIPLDLAIKHSRPGPTANGASKEKTKAPPNVKNEGPLNVVKTEKVDRSTQDELSTKCVHCGIVFLDEVMYALHMSCHGDSGPFQCSICQHLCTDKYDFTTHIQRGLHRNNAQVEKNGKPKE
B3: BEN domain-containing protein 3 (protein, UniProt Q5T5X7 1-828)
chain: MNSTEFTEDVEEVLKSITVKVETEAEDAALDCSVNSRTSEKHSVDSVLTALQDSSKRKQLVSDGLLDSVPGVKRRRLIPEALLAGMRNRENSSPCQGNGEQAGRGRSLGNVWPGEEEPCNDATTPSYKKPLYGISHKIMEKKNPPSGDLLNVYELFEKANASNSPSSLRLLNEPQKRDCGSTGAGTDNDPNIYFLIQKMFYMLNTLTSNMSQLHSKVDLLSLEVSRIKKQVSPTEMVAKFQPPPEYQLTAAELKQIVDQSLSGGDLACRLLVQLFPELFSDVDFSRGCSACGFAAKRKLESLHLQLIRNYVEVYYPSVKDTAVWQAECLPQLNDFFSRFWAQREMEDSQPSGQVASFFEAEQVDPGHFLDNKDQEEALSLDRSSTIASDHVVDTQDLTEFLDEASSPGEFAVFLLHRLFPELFDHRKLGEQYSCYGDGGKQELDPQRLQIIRNYTEIYFPDMQEEEAWLQQCAQRINDELEGLGLDAGSEGDPPRDDCYDSSSLPDDISVVKVEDSFEGERPGRRSKKIWLVPIDFDKLEIPQPDFEVPGADCLLSKEQLRSIYESSLSIGNFASRLLVHLFPELFTHENLRKQYNCSGSLGKKQLDPSRIKLIRHYVQLLYPRAKNDRVWTLEFVGKLDERCRRRDTEQRRSYQQQRKVHVPGPECRDLTSYAINPERFREEFEGPPLPPERSSKDFCKIPLDELVVPSPDFPVPSPYLLSDKEVREIVQQSLSVGNFAARLLVRLFPELFTAENLRLQYNHSGACNKKQLDPTRLRLIRHYVEAVYPVEKMEEVWHYECIPSIDERCRRPNRKKCDILKKAKKVEK
B4: PiggyBac transposable element-derived protein 3 (protein, UniProt Q8N328 1-593)
chain: MPRTLSLHEITDLLETDDSIEASAIVIQPPENATAPVSDEESGDEEGGTINNLPGSLLHTAAYLIQDGSDAESDSDDPSYAPKDDSPDEVPSTFTVQQPPPSRRRKMTKILCKWKKADLTVQPVAGRVTAPPNDFFTVMRTPTEILELFLDDEVIELIVKYSNLYACSKGVHLGLTSSEFKCFLGIIFLSGYVSVPRRRMFWEQRTDVHNVLVSAAMRRDRFETIFSNLHVADNANLDPVDKFSKLRPLISKLNERCMKFVPNETYFSFDEFMVPYFGRHGCKQFIRGKPIRFGYKFWCGATCLGYICWFQPYQGKNPNTKHEEYGVGASLVLQFSEALTEAHPGQYHFVFNNFFTSIALLDKLSSMGHQATGTVRKDHIDRVPLESDVALKKKERGTFDYRIDGKGNIVCRWNDNSVVTVASSGAGIHPLCLVSRYSQKLKKKIQVQQPNMIKVYNQFMGGVDRADENIDKYRASIRGKKWYSSPLLFCFELVLQNAWQLHKTYDEKPVDFLEFRRRVVCHYLETHGHPPEPGQKGRPQKRNIDSRYDGINHVIVKQGKQTRCAECHKNTTFRCEKCDVALHVKCSVEYHTE
B5: Zinc finger and BTB domain-containing protein 10 (protein, UniProt Q96DT7 1-871)
chain: MSFSEMNRRTLAFRGGGLVTASGGGSTNNNAGGEASAWPPQPQPRQPPPPAPPALQPPNGRGADEEVELEGLEPQDLEASAGPAAGAAEEAKELLLPQDAGGPTSLGGGAGGPLLAERNRRTLAFRGGGGGGLGNNGSSRGRPETSVWPLRHFNGRGPATVDLELDALEGKELMQDGASLSDSTEDEEEGASLGDGSGAEGGSCSSSRRSGGDGGDEVEGSGVGAGEGETVQHFPLARPKSLMQKLQCSFQTSWLKDFPWLRYSKDTGLMSCGWCQKTPADGGSVDLPPVGHDELSRGTRNYKKTLLLRHHVSTEHKLHEANAQESEIPSEEGYCDFNSRPNENSYCYQLLRQLNEQRKKGILCDVSIVVSGKIFKAHKNILVAGSRFFKTLYCFSNKESPNQNNTTHLDIAAVQGFSVILDFLYSGNLVLTSQNAIEVMTVASYLQMSEVVQTCRNFIKDALNISIKSEAPESVVVDYNNRKPVNRDGLSSSRDQKIASFWATRNLTNLASNVKIENDGCNVDEGQIENYQMNDSSWVQDGSPEMAENESEGQTKVFIWNNMGSQGIQETGKTRRKNQTTKRFIYNIPPNNETNLEDCSVMQPPVAYPEENTLLIKEEPDLDGALLSGPDGDRNVNANLLAEAGTSQDGGDAGTSHDFKYGLMPGPSNDFKYGLIPGTSNDFKYGLIPGASNDFKYGLLPESWPKQETWENGESSLIMNKLKCPHCSYVAKYRRTLKRHLLIHTGVRSFSCDICGKLFTRREHVKRHSLVHKKDKKYKCMVCKKIFMLAASVGIRHGSRRYGVCVDCADKSQPGGQEGVDQGQDTEFPRDEEYEENEVGEADEELVDDGEDQNDPSRWDESGEVCMSLDD
B6: Cyclin-dependent kinase 2-associated protein 1, O14519 1-115 (protein)
chain: MSYKPNLAAHMPAAALNAAGSVHSPSTSMATSSQYRQLLSDYGPPSLGYTQGTGNSQVPQSKYAELLAIIEELGKEIRPTYAGSKSAMERLKRGIIHARGLVRECLAETERNARS
B7: Zinc finger protein 219, Q9P2Y4 1-722 (protein)
chain: MEGSRPRAPSGHLAPSPPAFDGELDLQRYSNGPAVSAGSLGMGAVSWSESRAGERRFPCPVCGKRFRFNSILALHLRAHPGAQAFQCPHCGHRAAQRALLRSHLRTHQPERPRSPAARLLLELEERALLREARLGRARSSGGMQATPATEGLARPQAPSSSAFRCPYCKGKFRTSAERERHLHILHRPWKCGLCSFGSSQEEELLHHSLTAHGAPERPLAATSAAPPPQPQPQPPPQPEPRSVPQPEPEPEPEREATPTPAPAAPEEPPAPPEFRCQVCGQSFTQSWFLKGHMRKHKASFDHACPVCGRCFKEPWFLKNHMKVHASKLGPLRAPGPASGPARAPQPPDLGLLAYEPLGPALLLAPAPTPAERREPPSLLGYLSLRAGEGRPNGEGAEPGPGRSFGGFRPLSSALPARARRHRAEEPEEEEEVVEAEEETWARGRSLGSLASLHPRPGEGPGHSASAAGAQARSTATQEENGLLVGGTRPEGGRGATGKDCPFCGKSFRSAHHLKVHLRVHTGERPYKCPHCDYAGTQSGSLKYHLQRHHREQRSGAGPGPPPEPPPPSQRGSAPQSGAKPSPQPATWVEGASSPRPPSSGAGPGSRRKPASPGRTLRNGRGGEAEPLDLSLRAGPGGEAGPGGALHRCLFCPFATGAPELMALHLQVHHSRRARGRRPPQADASPPYARVPSGETPPSPSQEGEEGSGLSRPGEAGLGGQER
B8: RBAP46 (RBBP7), Q16576 1-425 (protein)
chain: MASKEMFEDTVEERVINEEYKIWKKNTPFLYDLVMTHALQWPSLTVQWLPEVTKPEGKDYALHWLVLGTHTSDEQNHLVVARVHIPNDDAQFDASHCDSDKGEFGGFGSVTGKIECEIKINHEGEVNRARYMPQNPHIIATKTPSSDVLVFDYTKHPAKPDPSGECNPDLRLRGHQKEGYGLSWNSNLSGHLLSASDDHTVCLWDINAGPKEGKIVDAKAIFTGHSAVVEDVAWHLLHESLFGSVADDQKLMIWDTRSNTTSKPSHLVDAHTAEVNCLSFNPYSEFILATGSADKTVALWDLRNLKLKLHTFESHKDEIFQVHWSPHNETILASSGTDRRLNVWDLSKIGEEQSAEDAEDGPPELLFIHGGHTAKISDFSWNPNEPWVICSVSEDNIMQIWQMAENIYNDEESDVTTSELEGQGS

Amino acid sequences for entries named in this document (tags omitted).
UniProt Q9UBB5: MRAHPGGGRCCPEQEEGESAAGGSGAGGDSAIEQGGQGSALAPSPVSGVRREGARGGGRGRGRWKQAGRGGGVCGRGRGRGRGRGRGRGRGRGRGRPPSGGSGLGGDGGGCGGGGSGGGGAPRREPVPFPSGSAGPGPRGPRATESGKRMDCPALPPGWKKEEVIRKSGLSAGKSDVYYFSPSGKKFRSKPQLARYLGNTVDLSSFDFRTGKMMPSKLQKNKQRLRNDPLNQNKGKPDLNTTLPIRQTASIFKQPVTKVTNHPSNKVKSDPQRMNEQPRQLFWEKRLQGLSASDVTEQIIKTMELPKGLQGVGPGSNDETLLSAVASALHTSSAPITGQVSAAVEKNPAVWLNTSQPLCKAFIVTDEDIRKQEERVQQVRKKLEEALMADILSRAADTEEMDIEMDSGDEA

biological target: TTE-MBD2 (TY1-TY1-ER tagged human full length MBD2) (human) (UniProt Q9UBB5); assay: affinity purification with mass spectrometry; Ty1 immunoprecipitation (5 µg BB2 antibody, protein A/G plus-agarose beads) from 500 µg nuclear proteins of TTE-MBD2 MCF-7, over night at 4°C, triplicates; on-bead trypsin digestion, label-free quantitation (MaxQuant); WT MCF-7 as control; conditions: not given

Q: With B1 as the binder, how does the binding read?
A: binds

Q: B2 was tested. Which binding did it give?
A: binds

Q: For B3, which binding is on record?
A: binds

Q: How did the binding turn out when B4 was run?
A: binds

Q: With B5 as the binder, how does the binding read?
A: binds

biological target: TTE-MBD2 (TY1-TY1-ER tagged human full length MBD2) (human), Q9UBB5; assay: as above; conditions: remark: other sources report otherwise

Q: Which binding does the source give for B6 here?
A: binds

Q: B7 was tested. Which binding did it give?
A: binds

Q: B8 was tested. Which binding did it give?
A: no binding

Source: article PMC4057170
